PubChem BioAssay AID1259405, NCATS | 2018
Aim: 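Silenced genes that increase secreted GFP made by CHO cells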 (primary screen). Cells: Chinese hamster CHO-K1 ovary cells with stable secreted eGFP expression. Reagents: single siRNA against mouse genes, 0.8 pmol siRNA per well (2 µl of 400 nM stock). Time to read-out: 3 days. Measurement: 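Percent of the per-plate non-targeting control median for intracellular GFP per well by laser scanning cytometry and for cell viability by ATP luminescence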. Scale: GFP, % of control: higher = more GFP per well, higher productivity; viability (ATP), % of control: higher = more viable cells (more ATP). Active means: 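a knock-down is called active if GFP reaches 120% or more of non-targeting control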.
This is a random part of about 50,000 reagents tested. Of all reagents, about 4,000 (8%) got an active call. 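Mouse siRNA library applied to hamster cells; one well for each siRNA.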 The numbers tell different reagents against one gene apart.

target | reagent | GFP, % of control | viability (ATP), % of control | Outcome
Lmf1 (lipase maturation factor 1) | 1 | 77.3 | 70.5 | inactive
Lmf1 (lipase maturation factor 1) | 2 | 143 | 97.7 | active
Lmf1 (lipase maturation factor 1) | 3 | 92.3 | 62.4 | inactive
Or4z4 (olfactory receptor family 4 subfamily Z member 4) | 1 | 49.4 | 59.5 | inactive
Or4z4 (olfactory receptor family 4 subfamily Z member 4) | 2 | 57.4 | 109 | inactive
Or4z4 (olfactory receptor family 4 subfamily Z member 4) | 3 | 65.3 | 91.5 | inactive
Prl3a1 (prolactin family 3, subfamily a, member 1) | 1 | 98.6 | 91.1 | inactive
Prl3a1 (prolactin family 3, subfamily a, member 1) | 2 | 66.1 | 76.4 | inactive
Prl3a1 (prolactin family 3, subfamily a, member 1) | 3 | 74.3 | 49.1 | inactive
Sri (sorcin) | 1 | 89.4 | 96.2 | inactive
Sri (sorcin) | 2 | 87.4 | 65.5 | inactive
Soat2 (sterol O-acyltransferase 2) | 1 | 82 | 82.6 | inactive
Soat2 (sterol O-acyltransferase 2) | 2 | 112 | 122 | inactive
Soat2 (sterol O-acyltransferase 2) | 3 | 47.8 | 77.1 | inactive
Apeh (acylpeptide hydrolase) | 1 | 76.9 | 76.2 | inactive
Apeh (acylpeptide hydrolase) | 2 | 39.3 | 50.6 | inactive
Apeh (acylpeptide hydrolase) | 3 | 75.5 | 53.8 | inactive
Sox8 (SRY (sex determining region Y)-box 8) | 1 | 41.5 | 46.6 | inactive
Sox8 (SRY (sex determining region Y)-box 8) | 2 | 68 | 85.5 | inactive
Sox8 (SRY (sex determining region Y)-box 8) | 3 | 100 | 113 | inactive
Or7c70 (olfactory receptor family 7 subfamily C member 70) | 1 | 57.9 | 48.3 | inactive
Or7c70 (olfactory receptor family 7 subfamily C member 70) | 2 | 88.1 | 57.4 | inactive
Or7c70 (olfactory receptor family 7 subfamily C member 70) | 3 | 78 | 84.7 | inactive
Dmbx1 (diencephalon/mesencephalon homeobox 1) | 1 | 72.9 | 57.2 | inactive
Dmbx1 (diencephalon/mesencephalon homeobox 1) | 2 | 70.2 | 64.7 | inactive
Dmbx1 (diencephalon/mesencephalon homeobox 1) | 3 | 43.9 | 43.9 | inactive
Lmo1 (LIM domain only 1) | 1 | 38.9 | 44.7 | inactive
Lmo1 (LIM domain only 1) | 2 | 46.6 | 65.6 | inactive
Lmo1 (LIM domain only 1) | 3 | 90.9 | 67.7 | inactive
Stom (stomatin) | 1 | 53 | 52.7 | inactive
Stom (stomatin) | 2 | 81.5 | 74.8 | inactive
Stom (stomatin) | 3 | 83.6 | 75.4 | inactive
Hapln4 (hyaluronan and proteoglycan link protein 4) | 1 | 126 | 32.9 | active
Hapln4 (hyaluronan and proteoglycan link protein 4) | 2 | 70.8 | 81.9 | inactive
Hapln4 (hyaluronan and proteoglycan link protein 4) | 3 | 76.9 | 54.8 | inactive
Mad1l1 (MAD1 mitotic arrest deficient 1-like 1) | 1 | 262 | 109 | active
Mad1l1 (MAD1 mitotic arrest deficient 1-like 1) | 2 | 88.3 | 82 | inactive
Mad1l1 (MAD1 mitotic arrest deficient 1-like 1) | 3 | 71.4 | 59.7 | inactive
Nup50 (nucleoporin 50) | 1 | 151 | 122 | active
Nup50 (nucleoporin 50) | 2 | 67.4 | 51.8 | inactive
Nup50 (nucleoporin 50) | 3 | 107 | 103 | inactive
Or10q1b (olfactory receptor family 10 subfamily Q member 1B) | 1 | 113 | 52.6 | inactive
Or10q1b (olfactory receptor family 10 subfamily Q member 1B) | 2 | 77.1 | 80.6 | inactive
Or10q1b (olfactory receptor family 10 subfamily Q member 1B) | 3 | 66.3 | 106 | inactive
Rph3a (rabphilin 3A) | 1 | 20.2 | 25.6 | inactive
Rph3a (rabphilin 3A) | 2 | 64.4 | 41.8 | inactive
Rph3a (rabphilin 3A) | 3 | 56.6 | 64.9 | inactive
Pigt (phosphatidylinositol glycan anchor biosynthesis, class T) | 1 | 104 | 83.9 | inactive
Pigt (phosphatidylinositol glycan anchor biosynthesis, class T) | 2 | 74.2 | 39.2 | inactive
Pigt (phosphatidylinositol glycan anchor biosynthesis, class T) | 3 | 96.1 | 0.711 | inactive
Stxbp4 (syntaxin binding protein 4) | 1 | 102 | 91.2 | inactive
Stxbp4 (syntaxin binding protein 4) | 2 | 25.4 | 45.7 | inactive
Stxbp4 (syntaxin binding protein 4) | 3 | 59.6 | 51.5 | inactive
Socs2 (suppressor of cytokine signaling 2) | 1 | 103 | 30.2 | inactive
Socs2 (suppressor of cytokine signaling 2) | 2 | 161 | 61.8 | active
Socs2 (suppressor of cytokine signaling 2) | 3 | 53.9 | 60.1 | inactive
Nlrp3 (NLR family, pyrin domain containing 3) | 1 | 110 | 96.2 | inactive
Nlrp3 (NLR family, pyrin domain containing 3) | 2 | 70.3 | 72.4 | inactive
Nlrp3 (NLR family, pyrin domain containing 3) | 3 | 72.5 | 68.9 | inactive
Ppm1g | 1 | 132 | 77.5 | active
Ppm1g | 2 | 82.6 | 51.6 | inactive
Ppm1g | 3 | 44.4 | 43.2 | inactive
Rgn (regucalcin) | 1 | 83.4 | 61.6 | inactive
Rgn (regucalcin) | 2 | 86.7 | 73.6 | inactive
Rgn (regucalcin) | 3 | 61.5 | 60.4 | inactive
Tubb4a (tubulin, beta 4A class IVA) | 1 | 53.5 | 43.6 | inactive
Tubb4a (tubulin, beta 4A class IVA) | 2 | 115 | 83.6 | inactive
Ephb2 (Eph receptor B2) | 1 | 25.3 | 32.5 | inactive
Ephb2 (Eph receptor B2) | 2 | 81 | 99.8 | inactive
Ephb2 (Eph receptor B2) | 3 | 31.6 | 73.4 | inactive
Atrip (ATR interacting protein) | 1 | 78 | 52.3 | inactive
Atrip (ATR interacting protein) | 2 | 106 | 101 | inactive
Atrip (ATR interacting protein) | 3 | 118 | 144 | inactive
Ptger4 (prostaglandin E receptor 4 (subtype EP4)) | 1 | 48.1 | 45.1 | inactive
Ptger4 (prostaglandin E receptor 4 (subtype EP4)) | 2 | 68 | 62.3 | inactive
Ptger4 (prostaglandin E receptor 4 (subtype EP4)) | 3 | 57.6 | 54.5 | inactive
Pramel37 (PRAME like 37) | 1 | 82.3 | 68.9 | inactive
Pramel37 (PRAME like 37) | 2 | 89.7 | 97.2 | inactive
Pramel37 (PRAME like 37) | 3 | 0 | 102 | inactive
Rabgap1 (RAB GTPase activating protein 1) | 1 | 96.2 | 81.3 | inactive
Rabgap1 (RAB GTPase activating protein 1) | 2 | 102 | 72.3 | inactive
Rabgap1 (RAB GTPase activating protein 1) | 3 | 52.2 | 76 | inactive
Cyp4f16 (cytochrome P450, family 4, subfamily f, polypeptide 16) | 1 | 50.9 | 32.5 | inactive
Cyp4f16 (cytochrome P450, family 4, subfamily f, polypeptide 16) | 2 | 105 | 90.3 | inactive
Cyp4f16 (cytochrome P450, family 4, subfamily f, polypeptide 16) | 3 | 87.8 | 85.5 | inactive
Pianp (PILR alpha associated neural protein) | 1 | 100 | 97.1 | inactive
Pianp (PILR alpha associated neural protein) | 2 | 87.5 | 85.2 | inactive
Pianp (PILR alpha associated neural protein) | 3 | 85.1 | 86.5 | inactive
Radil (Ras association and DIL domains) | 1 | 85.5 | 97.9 | inactive
Radil (Ras association and DIL domains) | 2 | 70.3 | 83.8 | inactive
Radil (Ras association and DIL domains) | 3 | 104 | 103 | inactive
Psd (pleckstrin and Sec7 domain containing) | 1 | 77.1 | 62.6 | inactive
Psd (pleckstrin and Sec7 domain containing) | 2 | 76.6 | 92.5 | inactive
Psd (pleckstrin and Sec7 domain containing) | 3 | 73.4 | 45.9 | inactive
Ehf (ets homologous factor) | 1 | 30.2 | 29.5 | inactive
Ehf (ets homologous factor) | 2 | 125 | 77.1 | active
Ehf (ets homologous factor) | 3 | 86.7 | 73.2 | inactive
Sp5 (trans-acting transcription factor 5) | 1 | 82.5 | 63.1 | inactive
Sp5 (trans-acting transcription factor 5) | 2 | 59.6 | 68.9 | inactive
Sp5 (trans-acting transcription factor 5) | 3 | 89.3 | 79.9 | inactive
Defb19 (defensin beta 19) | 1 | 66.5 | 79.1 | inactive
Defb19 (defensin beta 19) | 2 | 215 | 86.2 | active
Defb19 (defensin beta 19) | 3 | 29.9 | 92.1 | inactive
Tas2r139 (taste receptor, type 2, member 139) | 1 | 55.6 | 54.1 | inactive
Tas2r139 (taste receptor, type 2, member 139) | 2 | 66.9 | 72.6 | inactive
Tas2r139 (taste receptor, type 2, member 139) | 3 | 90.4 | 60.8 | inactive
Jade2 (jade family PHD finger 2) | 1 | 110 | 121 | inactive
Jade2 (jade family PHD finger 2) | 2 | 74.7 | 75.9 | inactive
Jade2 (jade family PHD finger 2) | 3 | 60 | 94.2 | inactive

Records listed above with an active call, once more:
target | reagent | GFP, % of control | viability (ATP), % of control | Outcome
Lmf1 (lipase maturation factor 1) | 2 | 143 | 97.7 | active
Hapln4 (hyaluronan and proteoglycan link protein 4) | 1 | 126 | 32.9 | active
Mad1l1 (MAD1 mitotic arrest deficient 1-like 1) | 1 | 262 | 109 | active
Nup50 (nucleoporin 50) | 1 | 151 | 122 | active
Socs2 (suppressor of cytokine signaling 2) | 2 | 161 | 61.8 | active
Ppm1g | 1 | 132 | 77.5 | active
Ehf (ets homologous factor) | 2 | 125 | 77.1 | active
Defb19 (defensin beta 19) | 2 | 215 | 86.2 | active
